Results deposited as PubChem BioAssay AID1053209 (Peter MacCallum Cancer Centre, 2014)
The whole screen tested about 1,580 reagents; this is an unselected part. Over the whole deposit, 207 (13%) got an active call. 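Rows are single siRNAs; four siRNAs per gene were tested, a gene counting as confirmed only when at least two agree.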 Entries without a mark were called inactive. Reagents against one gene are numbered here. Further read-outs or replicates are left out here. Reagent sequences are not shown.

- Screen: 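Gene losses that combine with doxorubicin to kill mouse bone cancer cells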 (follow-up of hits)
- Cell system: mouse primary osteosarcoma cells
- Reagent: single siRNA against mouse genes, 25 nM (text also states 40 nM)
- Duration: about 120 h (48 h before drug, then 72 h with drug)
- Treatment: doxorubicin 100 nM (about IC30-40), added 48 h after transfection, for 72 h
- Read-out: 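ATP-based luminescent viability, with or without doxorubicin, relative to non-targeting control NT1, mean of two replicates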
- Scale: viability with doxorubicin, vs NT1: higher = more viable cells under doxorubicin; viability without drug, vs NT1: higher = more viable cells without drug
- Active means: 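Active when doxorubicin viability is at most 0.7 of NT1 and drug-free viability lies between 0.7 and 1.1, class LC dox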

no.	target	reagent	combined effect class	viability with doxorubicin, vs NT1	viability without drug, vs NT1
1	Rpap3	1	high viability only with doxorubicin	1.11	1.04
2	Rpap3	2	normal viability with and without drug	1	0.96
3	Rpap3	3	normal viability with and without drug	1.04	1.07
4	Rpap3	4	normal viability with and without drug	0.76	0.88
5	Prr18	1	normal viability with and without drug	0.9	1.02
6	Prr18	2	low viability only with doxorubicin; normal without drug (active)	0.7	0.95
7	Prr18	3	normal viability with and without drug	0.94	1.01
8	Prr18	4	normal viability with and without drug	1.02	0.98
9	Pcdhga10	1	low viability only with doxorubicin; normal without drug (active)	0.63	0.94
10	Pcdhga10	2	normal viability with and without drug	1.04	1.07
11	Pcdhga10	3	normal viability with and without drug	0.88	0.92
12	Pcdhga10	4	normal viability with and without drug	0.98	0.97
13	Chmp4b	1	low viability only with doxorubicin; normal without drug (active)	0.33	0.77
14	Chmp4b	2	normal viability with and without drug	0.97	0.98
15	Chmp4b	3	low viability only with doxorubicin; normal without drug (active)	0.25	0.78
16	Chmp4b	4	low viability only with doxorubicin; normal without drug (active)	0.44	0.84
17	Romo1	1	normal viability with and without drug	0.75	1.02
18	Romo1	2	normal viability with and without drug	1.02	1.04
19	Romo1	3	normal viability with and without drug	0.81	0.88
20	Romo1	4	normal viability with and without drug	1.05	0.94
21	Cdc45	1	low viability only with doxorubicin; normal without drug (active)	0.41	0.73
22	Cdc45	2	normal viability with and without drug	0.77	0.84
23	Cdc45	3	normal viability with and without drug	1.08	0.99
24	Cdc45	4	normal viability with and without drug	1.04	1

Reformatted: entries from further up
target,reagent,combined effect class,"viability with doxorubicin, vs NT1","viability without drug, vs NT1"
Chmp4b,2,normal viability with and without drug,0.97,0.98
Chmp4b,3,low viability only with doxorubicin; normal without drug (active),0.25,0.78
